No constants are given. Whether binding was seen depends on the method and setting. In cells and extracts the contact can be indirect. Some binding calls cover weakened binding; strength is not graded here.
Molecular target: T1, JMJ16 in pXY106 (YFPc), BiFC positive control (UniProt C0SUT9)
T1 sequence: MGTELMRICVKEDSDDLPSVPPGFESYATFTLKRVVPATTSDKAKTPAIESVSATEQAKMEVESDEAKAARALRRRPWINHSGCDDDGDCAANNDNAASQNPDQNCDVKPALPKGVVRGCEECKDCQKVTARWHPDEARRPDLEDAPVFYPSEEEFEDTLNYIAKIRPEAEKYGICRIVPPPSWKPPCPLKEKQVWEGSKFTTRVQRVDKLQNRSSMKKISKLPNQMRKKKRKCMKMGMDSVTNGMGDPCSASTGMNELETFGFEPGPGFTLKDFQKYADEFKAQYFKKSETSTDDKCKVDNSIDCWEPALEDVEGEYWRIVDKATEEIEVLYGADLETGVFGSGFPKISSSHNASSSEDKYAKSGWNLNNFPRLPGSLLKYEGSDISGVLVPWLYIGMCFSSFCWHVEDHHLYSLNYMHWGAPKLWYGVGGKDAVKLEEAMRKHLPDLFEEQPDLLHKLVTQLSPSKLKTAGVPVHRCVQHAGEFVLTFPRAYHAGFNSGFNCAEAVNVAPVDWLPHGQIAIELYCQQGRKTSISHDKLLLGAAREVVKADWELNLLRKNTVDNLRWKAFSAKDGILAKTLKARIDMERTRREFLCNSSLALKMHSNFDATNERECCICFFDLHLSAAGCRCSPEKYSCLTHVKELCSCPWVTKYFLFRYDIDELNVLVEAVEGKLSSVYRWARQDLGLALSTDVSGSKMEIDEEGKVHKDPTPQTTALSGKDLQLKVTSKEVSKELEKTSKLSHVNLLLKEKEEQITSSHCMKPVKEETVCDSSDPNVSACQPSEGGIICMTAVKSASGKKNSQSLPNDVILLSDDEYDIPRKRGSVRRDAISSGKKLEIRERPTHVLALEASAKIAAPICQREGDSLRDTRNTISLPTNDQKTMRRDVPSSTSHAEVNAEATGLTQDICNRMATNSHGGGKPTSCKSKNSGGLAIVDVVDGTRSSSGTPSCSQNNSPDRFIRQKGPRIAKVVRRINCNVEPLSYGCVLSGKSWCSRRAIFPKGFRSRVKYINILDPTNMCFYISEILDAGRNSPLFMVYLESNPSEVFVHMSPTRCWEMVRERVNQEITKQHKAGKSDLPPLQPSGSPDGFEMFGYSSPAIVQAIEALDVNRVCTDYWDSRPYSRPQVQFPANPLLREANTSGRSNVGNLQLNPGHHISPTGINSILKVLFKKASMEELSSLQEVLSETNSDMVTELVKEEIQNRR
Assay: split reporter; BiFC (YFPn/YFPc) in N. benthamiana leaves, confocal microscopy

B1: MMD1 in pXY104 (YFPn), BiFC positive control (protein, UniProt Q7X6Y7 1-704)
chain: MPVPIIETCRKRKRKPKVYNLQRFGEDGFPIQRNGAFRDQIRVFLRDCAEIEDYDIRGMTVWCTLLSHETKSSLIPLYIVEENVKHSSEPYCDHCRCTGWSNHFVSKRKYHFIIPIDTEWSLPLEDDAFDSQSHVLHGLIHCNGFGHLVCVNGMESGSKYLCGREIVDFWDRLCNSLGARMITVEDLAKKRSVELRLLYGVAYGHSWFGRWGYKFCCGSFGVTKNEYENAIEALGSLEIDQIEFDFGELRQSKEINQVFRYYREMSEGHLKTFRDLLRFMLIIKSHASPQKLLPVTPPLLTDSPHQKRSSRLLLKKSDVADNDKSPKYRNYSTVAANLGSRWPVRRLIFAAEVIVESLKEMKALKQNGMTRQDVRDSARLHIGDTGLLDYVLKSMNNVVVGDVLVRRYVDPITRILHYTIQDLDDAVKAKEPKKKEAVVLEEITPLRILTPLKPGADVYGDLLLLYTNVLLNYPESELVRSATQAILDSKHFIKEWPIWDNNDTVLQFLCRINPSLVDVRSEQTTELPPGELVTVPLQATVYDLKQAIEETFRDTYCILSNFVVTEIDEVEEDMSLIGSCSALTVRGHGIDLESKLKCQGGCDTWMVKCICRARDDDGERMISCDVCEVWQHTRCCGIDDSDTLPPLFVCSNCCEEFAEQQRKVLQPKYEFPSSENVFLLESADDFFGDQRCLGMIFPEENYLL
binding: binds
